The exact form of at least one protein or probe is not confirmed. Tags and fusion partners may be left off the protein sequences shown.

The record followed here is patent US20100223690A1, “COMPOSITIONS AND METHODS FOR MODULATING PLANT DISEASE RESISTANCE AND IMMUNITY” (Washington State University, published 2010).

One series concerns the target T1, AtSR1 (Arabidopsis thaliana) (UniProt Q8GSA7).
T1 sequence (limits assumed): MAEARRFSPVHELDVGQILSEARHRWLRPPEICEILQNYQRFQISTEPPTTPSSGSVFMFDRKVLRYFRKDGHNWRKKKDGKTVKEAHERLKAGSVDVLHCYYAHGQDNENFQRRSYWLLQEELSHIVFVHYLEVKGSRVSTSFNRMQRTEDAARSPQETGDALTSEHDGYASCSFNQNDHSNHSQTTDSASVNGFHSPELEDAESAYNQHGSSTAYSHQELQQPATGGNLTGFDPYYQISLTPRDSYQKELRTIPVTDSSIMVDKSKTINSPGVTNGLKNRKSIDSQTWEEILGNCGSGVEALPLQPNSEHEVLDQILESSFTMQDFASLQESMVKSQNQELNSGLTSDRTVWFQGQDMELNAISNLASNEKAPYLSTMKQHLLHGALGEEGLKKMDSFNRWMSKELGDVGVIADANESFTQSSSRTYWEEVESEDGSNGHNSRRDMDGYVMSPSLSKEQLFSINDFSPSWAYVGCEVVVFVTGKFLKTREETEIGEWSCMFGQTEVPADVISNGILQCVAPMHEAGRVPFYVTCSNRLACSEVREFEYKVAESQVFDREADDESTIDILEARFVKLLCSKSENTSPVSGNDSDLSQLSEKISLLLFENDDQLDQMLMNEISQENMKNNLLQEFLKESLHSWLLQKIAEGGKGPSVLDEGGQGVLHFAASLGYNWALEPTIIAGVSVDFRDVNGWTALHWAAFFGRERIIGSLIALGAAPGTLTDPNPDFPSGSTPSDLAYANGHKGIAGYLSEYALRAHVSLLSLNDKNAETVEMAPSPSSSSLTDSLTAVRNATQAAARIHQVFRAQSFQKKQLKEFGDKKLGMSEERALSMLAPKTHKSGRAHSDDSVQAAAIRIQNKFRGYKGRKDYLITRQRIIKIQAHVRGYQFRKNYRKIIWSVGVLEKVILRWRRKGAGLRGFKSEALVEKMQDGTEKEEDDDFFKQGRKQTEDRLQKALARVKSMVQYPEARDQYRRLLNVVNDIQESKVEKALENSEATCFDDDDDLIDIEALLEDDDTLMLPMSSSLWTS
The experiment in a line: binding assay.
Details: not given
Turning to “ACGCGC (double strand) [CGCG box ACGCGC]”, the binding result is on record as “binds”.

As to “ACGCGT (double strand) [CGCG box ACGCGT]”, the binding result was “binds”.

On to “CCGCGC (double strand) [CGCG box CCGCGC]”, for which the binding result was “binds”.

Turning to “CCGCGG (double strand) [CGCG box CCGCGG]”, the binding result is “binds”.

Consider “CCGCGT (double strand) [CGCG box CCGCGT]”, for which the binding result is on record as “binds”.

In the case of “GCGCGG (double strand) [CGCG box GCGCGG]”, the binding result is “binds”.

“GCGCGT (double strand) [CGCG box GCGCGT]”: the binding result is “binds”.

The same series, now with this note: any CGCG mutation abolishes binding.
For the sequence “ACGCGG (double strand) [CGCG box ACGCGG]”, the binding result is listed as “binds”.
